Patent publication US20240101663A1
No constants are given. Whether binding was seen depends on the method and setting. Some binding calls cover weakened binding; strength is not graded here.

Chains of the proteins cited; added tags and fusions are not shown. Residues count along the entry.
UniProt P28908, residues 19-385: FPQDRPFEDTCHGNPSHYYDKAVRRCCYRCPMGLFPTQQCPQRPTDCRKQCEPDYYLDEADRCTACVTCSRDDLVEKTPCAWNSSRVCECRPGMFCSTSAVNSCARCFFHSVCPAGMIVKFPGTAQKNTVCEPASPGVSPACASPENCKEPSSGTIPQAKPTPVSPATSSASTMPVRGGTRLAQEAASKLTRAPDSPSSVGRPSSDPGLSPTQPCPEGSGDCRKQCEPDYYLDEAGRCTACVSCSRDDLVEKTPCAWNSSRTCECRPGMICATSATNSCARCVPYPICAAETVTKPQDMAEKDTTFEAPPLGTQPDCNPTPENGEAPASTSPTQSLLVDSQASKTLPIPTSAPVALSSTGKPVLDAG
UniProt Q8NHJ6, residues 22-259: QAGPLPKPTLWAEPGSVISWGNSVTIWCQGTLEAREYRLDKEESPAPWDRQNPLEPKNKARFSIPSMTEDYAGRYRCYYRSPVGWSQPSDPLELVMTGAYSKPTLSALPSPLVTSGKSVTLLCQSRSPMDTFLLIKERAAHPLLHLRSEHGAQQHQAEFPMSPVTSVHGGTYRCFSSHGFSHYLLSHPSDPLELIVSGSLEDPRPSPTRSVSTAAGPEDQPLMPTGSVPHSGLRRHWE

Tests used:
[1] = biological target: CD30 extracellular region protein fragment labeled with hFc (UniProt P28908); assay: ELISA with yeast-expressed CCDC112 protein
[2] = biological target: LILRB4 extracellular region protein fragment labeled with hFc (UniProt Q8NHJ6); assay: ELISA with yeast-expressed CCDC112 protein
[3] = biological target: CD30 extracellular region protein fragment labeled with hFc (UniProt P28908); assay: ELISA, CCDC112 coated, CD30-hFc in solution at different pH values
[4] = biological target: CD30 extracellular region protein fragment labeled with hFc (UniProt P28908); assay: ELISA, CCDC112 coated, 1 ug/mL receptor-hFc, anti-human Fc detection
[5] = biological target: LILRB4 extracellular region protein fragment labeled with hFc (UniProt Q8NHJ6); assay: as above
[6] = biological target: LILRB4 extracellular region protein fragment labeled with hFc (UniProt Q8NHJ6); assay: ELISA, CCDC112 coated at different concentrations, receptor-hFc in solution
[7] = biological target: LILRB4 extracellular region protein fragment labeled with hFc (UniProt Q8NHJ6); assay: ELISA, CCDC112 coated at 10, 3.3 and 1.1 ug/mL, LILRB4-hFc at 2 µg/mL (sheet title; the text says 1 µg/mL), anti-human Fc detection, 450 nm
[8] = biological target: CD30 extracellular region protein fragment labeled with hFc (UniProt P28908); assay: ELISA, coated CCDC112 gradient, CD30-hFc at 0.5 µg/mL at five pH values; target taken from the plot title 'CCDC112-CD30' (legend paragraph 73 names LTBR for FIG. 4)

Measured: binding

B1: CCDC112 recombinant protein (coiled-coil domain-containing protein 112) (ligand)
chain: MEKDKHSHFYNQKSDFRIEHSMLEELENKLIHSRKTERAKIQQQLAKIHNNVKKLQHQLKDVKPTPDFVEKLREMMEEIENAINTFKEEQRLIYEELIKEEKTTNNELSAISRKIDTWALGNSETEKAFRAISSKVPVDKVTPSTLPEEVLDFEKFLQQTGGRQGAWDDYDHQNFVKVRNKHKGKPTFMEEVLEHLPGKTQDEVQQHEKWYQKFLALEERKKESIQIWKTKKQQKREEIFKLKEKADNTPVLFHNKQEDNQKQKEEQRKKQKLAVEAWKKQKSIEMSMKCASQLKEEEEKEKKHQKERQRQFKLKLLLESYTQQKKEQEEFLRLEKEIREKAEKAEKRKNAADEISRFQERDLHKLELKILDRQAKEDEKSQKQRRLAKLKEKVENNVSRDPSRLYKPTKGWEERTKKIGPTGSGPLLHIPHRAIPTWRQGIQRRV
binds: [1] | [2] | [3] | [4] | [5] | [6] | [7] | [8]
